Reference: PubChem BioAssay AID504467 (National Center for Advancing Translational Sciences (NCATS), 2011)
The campaign covered roughly 330,000 compounds. About 7,700 (2.3%) were called active. This list was built around the results that the source calls inconclusive (neither active nor inactive); the mix of calls is not that of the screen. Calls follow the shape of the dose curve; as a rule, active = well fitted inhibition curve with a large enough effect; inconclusive = small, poorly fitted or top-dose-only effect, or effect the other way; inactive = flat fitted curve, though single readings scatter. Potencies of inconclusive entries are doubtful fits and often do not repeat.

Experiment: qHTS screen for small molecules that inhibit ELG1-dependent DNA repair in human embryonic kidney (HEK293T) cells expressing luciferase-tagged ELG1; also: nearly all actives have a fitted effect of over 55% in size
Settings: HEK293T ELG1-luciferase reporter, luminescence, 16 h, DNA damage induced by 5-fluorouridine; series mostly up to 46.1 µM
Method in brief: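 Overnight (16 hr) co-exposure of 2,000 cells/well to 5-fluorouridine and compound at 37 °C preceded detection. Luciferase was quantified via ONE-Glo luminescence; loss of signal denotes inhibition.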
Potency is read from the fitted curve at half-maximal effect.

| SMILES | Potency |
| --- | --- |
| CC(C)(C)n1nc(C2CC2)cc1NC(=O)Nc1ccc(Cl)cc1 | inconclusive: 29.1 µM [activator, single point] |
| O=C(COC(=O)c1c(Cl)cccc1Cl)Nc1ccccc1Br | inconclusive: 8.2 µM [inhibitor, partial curve, poor fit] |
| Cn1nnnc1SCc1cccc(CSc2nnnn2C)n1 | inactive |
| Cc1nc(NC(C)c2ccccc2)c2oc3ccccc3c2n1 (configuration not stated) | inconclusive: 11.6 µM [inhibitor, partial curve, poor fit] |
| Cc1ccn2c(NC3CCCC3)c(-c3cccs3)nc2c1 | inconclusive: 7.3 µM [activator, partial curve, poor fit] |
| O=C1OC[C@H]2CCCN2C(=O)[C@@H](CC(=O)N(CCO)Cc2ccccc2)C/C=C\C[C@@H]1Cc1ccc(F)cc1 | inconclusive: 20.6 µM [inhibitor, single point] |
| Cc1ccccc1Nc1c(-c2ccc(N3CCOCC3)cc2)nc2cnccn12 | inconclusive: 18.3 µM [activator, partial curve] |
| CCc1cc(=O)[nH]c(SCC(=O)Nc2ccc3c(c2)OCCO3)n1 | inactive |
| Cc1nc2c(C)c(C)c(C)c(C)c2nc1C | inactive |
| COC(=O)C1=C(C)N(Cc2ccccc2)C(=NCc2cc(OC)c(OC)c(OC)c2)N[C@H]1CCc1ccccc1 | inconclusive: 18.3 µM [inhibitor, single point] |
| Cc1cc(=O)[nH]c(SCCc2ccccc2)n1 | inactive |
| O=C(NCc1ccco1)c1cc(S(=O)(=O)N2CCCC2)ccc1Cl | inactive |
| N#Cc1ccc(COC(=O)c2cnc(Cl)c(Cl)c2)cc1 | inconclusive: 29.1 µM [activator, single point] |
| O=C1OCc2ccc(NC(=O)C3CCCCC3)cc21 | inactive |
| Cc1ccc(C(=O)O/N=C(\N)c2ccc(C(F)(F)F)cn2)cc1 | inconclusive: 29.1 µM [activator, single point] |
| CCC(=O)n1nc(-c2ccccc2)nc1NCc1ccccc1 | inconclusive: 18.4 µM [activator, single point] |
| Cc1[nH]n(-c2ccccc2)c(=O)c1N=Nc1ccc(F)cc1 | inconclusive: 16.4 µM [activator, partial curve] |
| O=C(NC(=S)Nc1ccccc1CO)C1CCCCC1 | inconclusive: 20.6 µM [activator, single point] |
| FC(F)(F)c1cnc2c(c1)[nH]c(=S)n2-c1ccc(Cl)cc1 | active: 16.4 µM |
| N#Cc1c(-c2ccco2)cc(-c2ccccc2)[nH]c1=O | inconclusive: 29.1 µM [inhibitor, single point] |
| Cc1cccnc1NC(=S)NC(=O)/C=C/c1ccccc1 | inactive |
| COc1ccc(CNc2nc3c(c(=O)[nH]c(=O)n3C)n2Cc2ccccc2)cc1 | inconclusive: 16.4 µM [activator, partial curve] |
| Cc1ccc(C(=O)COC(=O)CCN2C(=O)C3C4C=CC(C5CC45)C3C2=O)cc1 (configuration not stated) | inconclusive: 8.2 µM [activator, partial curve] |
| C/C(=N\Nc1nc2ccccc2s1)c1cccs1 | inconclusive: 0.92 µM [activator, full curve] |

Compounds listed so far that contain two or more sulfur atoms, in the order listed:

| SMILES | Potency |
| --- | --- |
| Cn1nnnc1SCc1cccc(CSc2nnnn2C)n1 | inactive |
| C/C(=N\Nc1nc2ccccc2s1)c1cccs1 | inconclusive: 0.92 µM [activator, full curve] |

The results go on:

| SMILES | Potency |
| --- | --- |
| COCC(=O)N1CCC(Oc2ccc(C(=O)N3CCCCCCC3)cc2)CC1 | inactive |
| COc1ccc(S(=O)(=O)Nc2ccc3ccccc3c2)cc1C | inconclusive: 0.731 µM [inhibitor, full curve, poor fit] |
| CCO[C@@H]1OC(C(=O)Nc2ccccc2)=C[C@H](c2ccc(C(F)(F)F)cc2)[C@H]1CCCO | inactive |
| COc1ccc(Oc2coc3cc(OC(=O)N4CCOCC4)ccc3c2=O)cc1 | inconclusive: 20.6 µM [inhibitor, partial curve, poor fit] |
| CC1=CCC2C(=O)N(Cc3ccccc3)C(=O)C2C1 (configuration not stated) | inactive |
| COc1ccc(NC(=O)Cn2nc(C(F)(F)F)c3c2CCCC3)cc1OC | inconclusive: 20.6 µM [inhibitor, partial curve] |
| CCOc1ccc2[nH]cc(-c3csc(N)n3)c2c1 | inactive |
| Cn1c(CN2CCCC2)nc2cc(NC(=O)c3ccc(Cl)cc3)ccc21 | inconclusive: 16.4 µM [inhibitor, single point] |
| Cc1cc(C)c2cc(C#N)c(SCC(=O)Nc3cc(C)on3)nc2c1 | inactive |
| OC1C=CSc2nc3ccccc3n21 (configuration not stated) | inactive |
| O=C(CCc1ccccc1)OCCOC(=O)CCc1ccccc1 | inactive |
| O=C(Cn1cc2c(n1)CCCC2)NCCCN1CCN(c2ccccc2F)CC1 | inactive |
| CCOc1cc(N2CCOCC2)c(OCC)cc1NC(=O)CSc1ccccc1C(=O)O | inactive |
| Cc1ccc(NC(=O)CSCC(=O)Nc2cccc(S(=O)(=O)N3CCCCCC3)c2)cc1 | inconclusive: 20 µM [inhibitor, single point] |
| CCn1c(SCC(O)c2ccccc2)nnc1-c1ccccc1 (configuration not stated) | inconclusive: 23.1 µM [activator, single point] |
| CCOC(=O)C1=CN(Cc2cccc(F)c2)S(=O)(=O)N(C)C1c1ccc2ccccc2c1 (configuration not stated) | inactive |
| NC(=O)C1CCN(c2oc(-c3cccs3)nc2S(=O)(=O)c2ccc(Br)cc2)CC1 | inactive |
| CCN(C(=O)COn1nnc2ccc(S(=O)(=O)N(C)C)cc21)C1CCS(=O)(=O)C1 (configuration not stated) | inconclusive: 11.2 µM [activator, partial curve, poor fit] |
| N#C/C(=C(/O)CSc1nnc(Cc2cccs2)n1C1CCCCC1)c1nc2ccccc2[nH]1 | inconclusive: 14.6 µM [inhibitor, partial curve] |
| COC(=O)Nc1nc2ccc(Br)cc2s1 | inconclusive: 2.91 µM [activator, full curve] |
| CCNc1nc(SCC(=O)Nc2ccc(Cl)c(Cl)c2)nc(N2CCOCC2)n1 | inconclusive: 29.1 µM [inhibitor, single point] |
| Cc1nc2ccc(NC(=O)Cc3ccc(Br)cc3)cc2s1 | inconclusive: 3.66 µM [activator, full curve, poor fit] |
| O=C(Nc1ccc(F)cc1)c1cc(-c2ccncc2)nc2c(Cl)cccc12 | inconclusive: 18.3 µM [inhibitor, single point] |

Given with bars between the fields: two of the compounds above.
SMILES | Potency
Cc1[nH]n(-c2ccccc2)c(=O)c1N=Nc1ccc(F)cc1 | inconclusive: 16.4 µM [activator, partial curve]
Cn1c(CN2CCCC2)nc2cc(NC(=O)c3ccc(Cl)cc3)ccc21 | inconclusive: 16.4 µM [inhibitor, single point]
